We go through 1 molecule from article PMC12418388.

The chains behind the UniProt entries cited, without tags or fusion partners. Where a name states a change or a piece, a line headed by the entry shows the natural chain unless it says otherwise.
UniProt P54823: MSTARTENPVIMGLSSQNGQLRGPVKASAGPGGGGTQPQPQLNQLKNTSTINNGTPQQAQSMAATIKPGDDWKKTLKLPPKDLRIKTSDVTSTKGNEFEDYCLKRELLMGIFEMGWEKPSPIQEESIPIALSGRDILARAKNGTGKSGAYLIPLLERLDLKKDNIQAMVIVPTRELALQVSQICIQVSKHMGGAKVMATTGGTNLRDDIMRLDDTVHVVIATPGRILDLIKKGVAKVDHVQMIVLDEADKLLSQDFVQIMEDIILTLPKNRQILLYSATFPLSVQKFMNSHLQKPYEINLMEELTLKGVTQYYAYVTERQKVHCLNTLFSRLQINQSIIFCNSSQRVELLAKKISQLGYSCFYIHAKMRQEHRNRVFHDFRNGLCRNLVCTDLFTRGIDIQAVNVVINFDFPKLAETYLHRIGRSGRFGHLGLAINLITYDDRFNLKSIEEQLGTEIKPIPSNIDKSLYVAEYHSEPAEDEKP

These are yes or no findings as the source states them, for the method shown. Binding seen in cells or lysates may run through a third protein. Binding calls can cover weak binding; strength is not graded here.

The test has as its target DDX6^Mut6 of the co-IP of Supplementary Fig. S6B (UniProt P54823). The experiment in a line: co-IP; co-IP of wild-type, truncated and mutant DDX6 proteins (Supplementary Fig. S6A, B); cells not given; western blot. In general terms: Immunoblotting shows a protein as a band on a membrane.

B1: EDC3 (protein, UniProt Q8K2D3 1-508)
chain: MAMDWLGSIVSINCGDSLGVYQGRVSAVDQVSQTISLTRPFHNGVKCLVPEVTFRAGDITELKILEIPGPGDNQQVGDLHQTELGPSGVGYQMSISQNGTGKVVKKPASSSSAPQSIPKRTDVKSQDVAISPQQQQCSKSYVDRHMESLSQSKSFRRRHNSWSSSSRHPNQATPKKSGLKNGQMKNKDDECFGDDIEELPDTDFDFEGNLALFDKAAVFEEIDTYERRSGSRSRGVPNERPARYRHDENILESEPIVYRRITVPHSVSKEFCTDSGLVVPSVSYELHKKLLSVAEKHGLTLERRLEMTGVCASQMALTLLGGPNRLNPKNVHQRPTVALLCGPHVKGAQGISCGRHLANHDVQVILFLPNFVKMLESITNELSLFSKTQGQQVSSLRDLPASPVDLVINCLDCPENAFLRDQPWYKAAVAWANQNRAPVLSIDPPVHEVEQGIDAKWSLALGLPLPLGEHAGRVYLCDIGIPQQVFQEVGINYHSPFGCKFVIPLHSA
As for B1, the binding result was “binds”.
